The record followed here is paper PMC4454308.

Sequences of proteins named here, by UniProt entry; tags and fusion partners are left off.
UniProt O60260: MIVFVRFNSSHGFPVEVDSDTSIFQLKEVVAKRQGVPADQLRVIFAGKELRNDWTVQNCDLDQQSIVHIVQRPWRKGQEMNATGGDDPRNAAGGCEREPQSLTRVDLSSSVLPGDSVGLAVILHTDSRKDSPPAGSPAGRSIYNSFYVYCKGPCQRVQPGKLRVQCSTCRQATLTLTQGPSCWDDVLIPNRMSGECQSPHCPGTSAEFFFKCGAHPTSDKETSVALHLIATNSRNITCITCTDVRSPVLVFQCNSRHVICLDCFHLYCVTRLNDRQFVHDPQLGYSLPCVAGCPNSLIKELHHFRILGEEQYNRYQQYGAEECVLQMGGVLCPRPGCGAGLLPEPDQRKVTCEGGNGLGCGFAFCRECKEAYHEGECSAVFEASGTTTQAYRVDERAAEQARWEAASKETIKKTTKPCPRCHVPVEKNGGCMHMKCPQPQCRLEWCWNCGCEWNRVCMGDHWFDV
UniProt Q9JK66: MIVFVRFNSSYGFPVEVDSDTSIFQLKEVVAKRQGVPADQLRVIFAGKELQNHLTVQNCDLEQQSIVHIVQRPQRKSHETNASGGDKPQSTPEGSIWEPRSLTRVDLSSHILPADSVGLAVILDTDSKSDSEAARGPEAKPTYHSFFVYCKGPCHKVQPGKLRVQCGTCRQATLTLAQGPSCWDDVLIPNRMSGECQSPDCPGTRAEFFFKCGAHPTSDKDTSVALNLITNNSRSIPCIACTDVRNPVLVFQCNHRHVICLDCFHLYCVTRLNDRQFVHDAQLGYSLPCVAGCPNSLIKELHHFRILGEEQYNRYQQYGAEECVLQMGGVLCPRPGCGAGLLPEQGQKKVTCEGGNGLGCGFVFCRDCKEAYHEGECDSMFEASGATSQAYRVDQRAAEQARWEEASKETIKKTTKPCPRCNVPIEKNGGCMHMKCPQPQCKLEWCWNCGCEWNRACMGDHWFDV

No constants are given. Whether binding was seen depends on the method and setting. Binding seen in cells or lysates may run through a third protein. Some results given as binding are weak or reduced against the parent protein; the word gives no strength. For some of these results: Sequences can lack the tags named with a protein.

The target of test [1] is T1, RTP801 (ectopic, from pCMS-eGFP RTP801) (UniProt Q8VHZ9).
T1 sequence: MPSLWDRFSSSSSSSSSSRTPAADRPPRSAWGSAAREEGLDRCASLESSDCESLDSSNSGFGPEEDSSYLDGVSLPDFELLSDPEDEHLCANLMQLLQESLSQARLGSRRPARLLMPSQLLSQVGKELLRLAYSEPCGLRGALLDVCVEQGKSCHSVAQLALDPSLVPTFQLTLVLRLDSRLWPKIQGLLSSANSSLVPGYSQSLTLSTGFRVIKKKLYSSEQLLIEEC
The experiment in a line: co-IP; HEK293 co-transfected with pCMS-eGFP RTP801 and pEGFP-C2-parkin; 24 h later DSP cross-linking for 2 h at 4°C before harvest; IP with anti-RTP801 (normal IgG as control), blot for parkin; beads washed five times with CHAPS buffer (Tris 50 mM pH 7.4, NaCl 150 mM, MgCl2 10 mM, CHAPS 0.4%).

For test [2], the target named is T2, endogenous RTP801 (neuronal PC12 cells) (rat (endogenous in PC12)) (UniProt Q8VHZ9).
T2 sequence: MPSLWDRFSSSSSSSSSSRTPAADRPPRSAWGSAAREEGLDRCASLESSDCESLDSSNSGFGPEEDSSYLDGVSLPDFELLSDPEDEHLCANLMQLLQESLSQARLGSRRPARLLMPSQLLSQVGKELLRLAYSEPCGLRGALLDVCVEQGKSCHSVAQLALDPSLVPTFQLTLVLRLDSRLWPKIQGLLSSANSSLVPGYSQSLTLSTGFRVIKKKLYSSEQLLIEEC
The experiment in a line: co-IP; endogenous proteins in neuronal PC12 cell lysates, cells treated with or without MG132 for 5 h; IP with anti-parkin (protein A) or anti-RTP801 (protein G), anti-GFP as control antibody; overnight at 4°C; beads washed four times with cell lysis buffer; blots for parkin and RTP801.

The target of test [3] is GFP-tagged parkin (ectopic, from pEGFP-C2-parkin) (UniProt O60260). The experiment in a line: co-IP; converse direction: ectopic parkin immunoprecipitated, blot probed for RTP801 (Supplementary Figure S3); cells, antibody and use of DSP not told in the text shown.
The target in test [4] is endogenous parkin (neuronal PC12 cells) (rat (endogenous in PC12)) (UniProt Q9JK66). The experiment in a line: co-IP; endogenous proteins in neuronal PC12 cell lysates, cells treated with or without MG132 for 5 h; IP with anti-parkin (protein A) or anti-RTP801 (protein G), anti-GFP as control antibody; overnight at 4°C; beads washed four times with cell lysis buffer; blots for parkin and RTP801.

For the molecule “GFP-tagged parkin (ectopic, from pEGFP-C2-parkin) (from UniProt O60260 1-465) (enzyme)”, in test [1], the binding entry is on record as “binds”.

“endogenous parkin (neuronal PC12 cells) (from UniProt Q9JK66 1-465) (enzyme)”: in test [2], the binding entry is “binds”.

B1: RTP801 (ectopic, from pCMS-eGFP RTP801) (protein, UniProt Q8VHZ9 1-229)
chain: MPSLWDRFSSSSSSSSSSRTPAADRPPRSAWGSAAREEGLDRCASLESSDCESLDSSNSGFGPEEDSSYLDGVSLPDFELLSDPEDEHLCANLMQLLQESLSQARLGSRRPARLLMPSQLLSQVGKELLRLAYSEPCGLRGALLDVCVEQGKSCHSVAQLALDPSLVPTFQLTLVLRLDSRLWPKIQGLLSSANSSLVPGYSQSLTLSTGFRVIKKKLYSSEQLLIEEC
Turning to B1, the binding result in test [3] is given as “binds”.

B2: endogenous RTP801 (neuronal PC12 cells) (protein, UniProt Q8VHZ9 1-229)
chain: MPSLWDRFSSSSSSSSSSRTPAADRPPRSAWGSAAREEGLDRCASLESSDCESLDSSNSGFGPEEDSSYLDGVSLPDFELLSDPEDEHLCANLMQLLQESLSQARLGSRRPARLLMPSQLLSQVGKELLRLAYSEPCGLRGALLDVCVEQGKSCHSVAQLALDPSLVPTFQLTLVLRLDSRLWPKIQGLLSSANSSLVPGYSQSLTLSTGFRVIKKKLYSSEQLLIEEC
On to B2, for which the binding result in test [4] is reported as “binds”.
